Entries after “also recorded” stand apart in the source; their conditions may differ. At least one structure is not confirmed: it was looked up by name or label, or the drawing left a doubt.
What was measured:
[1] = tested on: muscle-derived multipotent progenitor cells (MPC); assay: MPC osteogenesis in 2D, alizarin red staining; type: cell-based, human
[2] = tested on: bone marrow-derived mesenchymal stem cells (BMD-MSCs); assay: BMD-MSC osteogenesis in 2D culture, alizarin red staining; type: cell-based; settings: BMP plus soluble dorsomorphin, 21 days
[3] = tested on: human osteochondral plugs; assay: T3-induced calcification of human osteochondral plugs (ALP assay, real time-PCR); type: cell-based
Description: FIG. 5 represents the outline for testing of preventing calcification. Experimental design to test the effects of triiodothyronine in inducing calcification and of dorsomorphin in inhibiting calcification in human osteochondral biopsies, an example of which is depicted on the right.
FIG. 6 is two graphs depicting ALP activity. The graphs represent the level of ALP activity in the osteochondral constructs media measured with a colorimetric ALP assay for the samples outlined in the previous figure.
Dorsomorphin has been encapsulated in PLGA-based MPs of micrometer scale dimensions. As the particles degrade, dorsomorphin is released generating a local concentration within the range required to prevent local calcification. To confirm this, human osteochondral plugs (3 mm by 3 mm by 8 mm of a cartilage and bone biopsy-like sample) have been forced to calcify using triiodothyronine (T3) and then exposed to dorsomorphin.

[4] = tested on: BMP2-induced MPC heterotopic ossification; assay: Heterotopic ossification in hind limbs of SCID mice injected with MPC+BMP2+/-DM, bone volume by μCT; type: in vivo; settings: co-injected with MPC+BMP2 in hind limb of SCID mice
[5] = tested on: SMAD1/5/8 phosphorylation; settings: background statement; cited from earlier work

c1cc(-c2cnn3cc(-c4ccc(OCCN5CCCCC5)cc4)cnc23)ccn1 [dorsomorphin]
osteogenesis/calcification (alizarin red) ([1]; BMP+DM+ medium, soluble dorsomorphin 2.5 mM / 2.5 nM, 1, 3, 5, 7 weeks): no calcification happened; also recorded: inhibition | osteogenesis/calcification (alizarin red) ([1]; DM+ medium, dorsomorphin alone, no BMP): seemed to inhibit even the natural tendency | calcium deposition (alizarin red) [2]: completely inhibited | calcification process (ALP assay and real time-PCR) ([3]; plugs forced to calcify with T3, then exposed to dorsomorphin): arrested the calcification process | ALP activity in osteochondral constructs media ([3]; treated with both triiodothyronine and dorsomorphin, day 0 versus day 20): statistically significant (p<0.05) decrease in ALP activity | heterotopic bone volume (μCT) [4]: no long term effect on the locally injected cells | SMAD1/5/8 phosphorylation [5]: interfere with SMAD1/5/8 phosphorylation

— patent publication US11318103B2, “Treating soft tissue via controlled drug release” (University of Pittsburgh—Of the Commonwealth System of …, priority 2014, dated 2022)
